Results are given in words; binding and its absence hold for the method and conditions named. In cells and extracts the contact can be indirect. Some entries that bind do so weakly or less than the wild type.
Assays:
[1] = target: endogenous Rad18 (human (endogenous in 293T)) (UniProt Q9NS91); test: co-IP; lysates of 293T cells transfected with pJM101 or pcDNA3-L1 ORF1-HA; endogenous Rad18 precipitated with anti-Rad18 (A301-340A); blot with anti-hORF1p (SE-6798)
[2] = target: Myc-tagged Rad18 (WT) (UniProt Q9NS91); test: co-IP; reciprocal: lysates of 293T cells co-expressing Rad18-Myc and HA-L1 ORF1p, treated with or without 100 µg RNase A; precipitated with anti-Myc antibody; blot with anti-HA
[3] = target: HA-tagged L1 ORF1p (human) (UniProt Q9UN81); test: co-IP; lysates of 293T cells co-expressing Myc-tagged Rad18 (WT, ∆6BD or ∆C2) and HA-tagged L1 ORF1p; precipitated with anti-HA (3F10) and protein-G-Sepharose, 4 °C; blot with anti-Myc-tag; lysis buffer 10 mM Tris-HCl pH 8.0, 150 mM NaCl, 1 mM EDTA, 0.1% NP-40

Chains of the proteins cited; added tags and fusions are not shown.
UniProt Q9NS91: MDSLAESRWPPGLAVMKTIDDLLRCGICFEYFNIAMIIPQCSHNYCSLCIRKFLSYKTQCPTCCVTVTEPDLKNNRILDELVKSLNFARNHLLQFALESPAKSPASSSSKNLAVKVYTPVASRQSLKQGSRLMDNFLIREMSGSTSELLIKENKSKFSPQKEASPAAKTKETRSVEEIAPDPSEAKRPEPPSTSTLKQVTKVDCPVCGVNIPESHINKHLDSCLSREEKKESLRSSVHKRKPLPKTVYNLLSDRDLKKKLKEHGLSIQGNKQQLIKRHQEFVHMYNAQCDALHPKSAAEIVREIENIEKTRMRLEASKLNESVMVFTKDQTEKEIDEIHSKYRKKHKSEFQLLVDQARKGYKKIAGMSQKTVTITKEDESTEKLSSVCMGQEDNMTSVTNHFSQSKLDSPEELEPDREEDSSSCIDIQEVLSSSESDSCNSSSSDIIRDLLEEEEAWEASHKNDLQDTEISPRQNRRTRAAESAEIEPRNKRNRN
UniProt Q9UN81: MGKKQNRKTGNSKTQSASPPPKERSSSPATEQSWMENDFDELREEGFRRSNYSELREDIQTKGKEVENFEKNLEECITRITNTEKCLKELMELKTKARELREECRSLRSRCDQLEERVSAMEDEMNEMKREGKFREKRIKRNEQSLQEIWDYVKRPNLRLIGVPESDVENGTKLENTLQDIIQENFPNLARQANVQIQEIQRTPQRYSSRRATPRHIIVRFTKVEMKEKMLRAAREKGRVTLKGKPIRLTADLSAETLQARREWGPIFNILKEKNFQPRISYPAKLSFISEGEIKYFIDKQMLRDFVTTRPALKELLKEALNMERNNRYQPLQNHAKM

Substance | binding [1] | binding [2] | binding [3]
HA-tagged L1 ORF1p (from UniProt Q9UN81 1-338) | binds | binds | –
Myc-tagged Rad18 (WT) (from UniProt Q9NS91 1-495) | – | – | binds
pJM101-derived ORF1p (from UniProt Q9UN81 1-338) | binds | – | –

Reference: article PMC6203705
